The record followed here is publication PMC10522464.

By UniProt entry, the sequences of proteins in these tests, tags left out.
UniProt E9Q401: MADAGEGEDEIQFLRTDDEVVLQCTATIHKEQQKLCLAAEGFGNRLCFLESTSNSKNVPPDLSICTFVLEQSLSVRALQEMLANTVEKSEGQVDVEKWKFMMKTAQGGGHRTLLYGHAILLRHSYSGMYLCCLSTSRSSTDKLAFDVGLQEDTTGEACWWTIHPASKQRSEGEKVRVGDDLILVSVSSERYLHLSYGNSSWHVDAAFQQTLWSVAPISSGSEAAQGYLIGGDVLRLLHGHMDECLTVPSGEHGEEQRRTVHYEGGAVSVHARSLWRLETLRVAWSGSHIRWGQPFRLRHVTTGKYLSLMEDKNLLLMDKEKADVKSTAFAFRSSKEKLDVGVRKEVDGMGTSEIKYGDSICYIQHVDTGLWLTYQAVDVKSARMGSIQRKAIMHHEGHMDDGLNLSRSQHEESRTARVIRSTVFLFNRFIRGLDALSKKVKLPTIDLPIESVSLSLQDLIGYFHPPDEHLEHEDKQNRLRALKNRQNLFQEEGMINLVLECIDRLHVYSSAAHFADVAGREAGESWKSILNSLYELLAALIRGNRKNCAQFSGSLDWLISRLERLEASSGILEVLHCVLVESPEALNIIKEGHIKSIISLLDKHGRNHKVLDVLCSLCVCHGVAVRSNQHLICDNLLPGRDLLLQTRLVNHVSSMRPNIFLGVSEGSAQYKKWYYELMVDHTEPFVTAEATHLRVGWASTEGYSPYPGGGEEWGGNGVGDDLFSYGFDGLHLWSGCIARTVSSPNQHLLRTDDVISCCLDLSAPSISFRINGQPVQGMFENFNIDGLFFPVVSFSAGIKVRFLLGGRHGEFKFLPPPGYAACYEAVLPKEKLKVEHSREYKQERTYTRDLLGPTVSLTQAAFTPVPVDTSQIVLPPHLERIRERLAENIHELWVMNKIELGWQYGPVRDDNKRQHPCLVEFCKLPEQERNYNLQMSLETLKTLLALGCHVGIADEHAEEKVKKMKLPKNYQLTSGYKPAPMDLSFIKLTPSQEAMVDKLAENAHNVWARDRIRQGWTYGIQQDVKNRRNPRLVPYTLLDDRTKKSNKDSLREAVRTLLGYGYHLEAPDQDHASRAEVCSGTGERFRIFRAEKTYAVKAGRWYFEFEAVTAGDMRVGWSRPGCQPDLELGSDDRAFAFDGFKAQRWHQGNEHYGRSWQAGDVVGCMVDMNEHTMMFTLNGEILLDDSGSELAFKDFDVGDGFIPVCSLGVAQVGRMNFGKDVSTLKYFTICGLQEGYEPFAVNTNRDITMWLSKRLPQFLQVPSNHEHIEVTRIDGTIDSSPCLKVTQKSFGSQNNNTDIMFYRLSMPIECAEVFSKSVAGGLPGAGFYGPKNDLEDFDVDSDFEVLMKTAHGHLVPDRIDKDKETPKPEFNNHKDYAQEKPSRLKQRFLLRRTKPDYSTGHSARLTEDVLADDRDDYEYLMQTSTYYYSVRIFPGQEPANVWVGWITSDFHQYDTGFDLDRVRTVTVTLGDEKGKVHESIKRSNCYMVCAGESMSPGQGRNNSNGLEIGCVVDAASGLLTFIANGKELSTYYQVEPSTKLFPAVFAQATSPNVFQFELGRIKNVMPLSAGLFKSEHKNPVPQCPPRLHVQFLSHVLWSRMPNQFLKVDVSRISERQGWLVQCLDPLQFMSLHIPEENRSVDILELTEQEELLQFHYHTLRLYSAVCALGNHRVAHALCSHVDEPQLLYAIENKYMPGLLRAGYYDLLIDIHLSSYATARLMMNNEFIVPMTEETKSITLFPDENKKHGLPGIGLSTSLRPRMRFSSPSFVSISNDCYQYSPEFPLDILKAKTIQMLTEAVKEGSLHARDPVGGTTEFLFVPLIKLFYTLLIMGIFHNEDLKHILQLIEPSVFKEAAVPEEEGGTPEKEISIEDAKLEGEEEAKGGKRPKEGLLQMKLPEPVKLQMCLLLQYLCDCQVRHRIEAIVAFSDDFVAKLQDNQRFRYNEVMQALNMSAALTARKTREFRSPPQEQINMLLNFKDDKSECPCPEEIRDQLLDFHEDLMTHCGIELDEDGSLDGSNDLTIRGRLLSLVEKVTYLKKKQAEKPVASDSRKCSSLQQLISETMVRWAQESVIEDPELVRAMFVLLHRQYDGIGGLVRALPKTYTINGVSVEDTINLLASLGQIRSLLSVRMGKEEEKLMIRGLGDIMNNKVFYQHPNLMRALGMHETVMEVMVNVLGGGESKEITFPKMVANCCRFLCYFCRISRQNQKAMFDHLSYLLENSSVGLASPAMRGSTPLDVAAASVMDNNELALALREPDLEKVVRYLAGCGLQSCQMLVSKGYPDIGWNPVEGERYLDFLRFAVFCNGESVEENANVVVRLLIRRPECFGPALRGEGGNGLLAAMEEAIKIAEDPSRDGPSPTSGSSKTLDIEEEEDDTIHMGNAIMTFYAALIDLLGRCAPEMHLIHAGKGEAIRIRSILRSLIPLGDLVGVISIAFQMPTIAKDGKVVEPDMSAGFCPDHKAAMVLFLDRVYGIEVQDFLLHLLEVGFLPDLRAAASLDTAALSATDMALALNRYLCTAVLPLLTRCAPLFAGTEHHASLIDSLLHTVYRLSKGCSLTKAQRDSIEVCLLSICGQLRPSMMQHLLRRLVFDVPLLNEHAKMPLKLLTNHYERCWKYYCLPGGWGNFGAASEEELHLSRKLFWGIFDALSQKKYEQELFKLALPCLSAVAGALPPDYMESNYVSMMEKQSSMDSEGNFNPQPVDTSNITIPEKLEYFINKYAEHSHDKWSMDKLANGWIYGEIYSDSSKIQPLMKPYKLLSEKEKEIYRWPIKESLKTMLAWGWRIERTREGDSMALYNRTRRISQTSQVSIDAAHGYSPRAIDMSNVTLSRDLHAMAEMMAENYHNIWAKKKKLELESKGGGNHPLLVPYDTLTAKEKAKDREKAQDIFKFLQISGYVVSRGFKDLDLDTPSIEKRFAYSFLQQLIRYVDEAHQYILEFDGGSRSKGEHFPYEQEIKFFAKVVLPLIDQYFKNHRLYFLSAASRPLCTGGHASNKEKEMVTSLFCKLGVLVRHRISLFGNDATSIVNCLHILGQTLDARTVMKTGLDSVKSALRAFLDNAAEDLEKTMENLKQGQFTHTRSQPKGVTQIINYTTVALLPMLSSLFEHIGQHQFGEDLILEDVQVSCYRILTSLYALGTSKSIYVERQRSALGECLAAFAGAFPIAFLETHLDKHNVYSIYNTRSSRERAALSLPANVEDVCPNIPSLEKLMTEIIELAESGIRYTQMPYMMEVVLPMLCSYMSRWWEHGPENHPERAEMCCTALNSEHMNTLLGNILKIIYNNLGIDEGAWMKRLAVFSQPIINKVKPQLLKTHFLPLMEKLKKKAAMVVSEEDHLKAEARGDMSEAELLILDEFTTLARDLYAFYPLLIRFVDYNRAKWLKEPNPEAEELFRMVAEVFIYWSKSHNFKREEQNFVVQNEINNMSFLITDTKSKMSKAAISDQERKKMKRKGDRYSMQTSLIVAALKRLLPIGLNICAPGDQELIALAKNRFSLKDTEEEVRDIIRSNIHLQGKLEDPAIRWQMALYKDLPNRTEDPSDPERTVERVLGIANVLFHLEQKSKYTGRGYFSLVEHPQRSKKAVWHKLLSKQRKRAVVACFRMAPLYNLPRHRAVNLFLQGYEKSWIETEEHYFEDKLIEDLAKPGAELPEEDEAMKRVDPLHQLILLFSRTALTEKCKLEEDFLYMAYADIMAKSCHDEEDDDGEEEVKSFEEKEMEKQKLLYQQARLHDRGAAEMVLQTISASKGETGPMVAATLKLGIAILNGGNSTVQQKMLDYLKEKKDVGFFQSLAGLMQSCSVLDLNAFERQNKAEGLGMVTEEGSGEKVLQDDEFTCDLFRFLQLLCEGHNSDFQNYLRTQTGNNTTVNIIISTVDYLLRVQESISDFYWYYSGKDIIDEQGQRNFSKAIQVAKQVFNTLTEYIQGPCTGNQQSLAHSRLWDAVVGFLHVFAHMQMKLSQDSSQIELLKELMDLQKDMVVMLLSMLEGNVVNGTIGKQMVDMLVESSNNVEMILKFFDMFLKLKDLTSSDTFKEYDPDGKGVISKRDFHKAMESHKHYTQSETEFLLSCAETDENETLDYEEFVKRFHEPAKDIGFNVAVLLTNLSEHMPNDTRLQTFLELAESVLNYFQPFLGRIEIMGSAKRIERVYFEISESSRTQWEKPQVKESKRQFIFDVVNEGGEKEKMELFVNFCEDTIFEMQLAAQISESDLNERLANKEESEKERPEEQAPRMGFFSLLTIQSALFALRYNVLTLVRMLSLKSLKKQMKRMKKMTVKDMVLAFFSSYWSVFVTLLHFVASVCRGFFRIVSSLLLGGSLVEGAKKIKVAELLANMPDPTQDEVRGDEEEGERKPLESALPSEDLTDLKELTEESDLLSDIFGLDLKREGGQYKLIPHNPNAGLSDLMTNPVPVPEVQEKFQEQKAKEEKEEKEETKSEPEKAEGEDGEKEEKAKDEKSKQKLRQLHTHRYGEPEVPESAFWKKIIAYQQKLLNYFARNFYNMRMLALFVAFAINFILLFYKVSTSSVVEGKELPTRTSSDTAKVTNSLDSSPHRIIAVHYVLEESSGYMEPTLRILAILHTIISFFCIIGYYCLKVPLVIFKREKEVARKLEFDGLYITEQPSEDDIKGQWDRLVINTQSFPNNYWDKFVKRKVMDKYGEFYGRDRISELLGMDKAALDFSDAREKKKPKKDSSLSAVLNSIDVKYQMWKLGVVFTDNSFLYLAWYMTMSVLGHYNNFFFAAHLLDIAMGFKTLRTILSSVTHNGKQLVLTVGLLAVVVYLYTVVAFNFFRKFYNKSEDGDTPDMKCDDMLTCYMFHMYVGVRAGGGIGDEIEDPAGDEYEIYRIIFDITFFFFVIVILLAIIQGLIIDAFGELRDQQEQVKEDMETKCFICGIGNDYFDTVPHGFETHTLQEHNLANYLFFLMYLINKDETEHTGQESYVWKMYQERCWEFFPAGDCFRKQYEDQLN

In this assay the target is streptavidin-binding peptide (SBP)-tagged RyR2 (mouse) (UniProt E9Q401). In words: co-IP; lysate of SBP-RyR2 HEK293 cells infected with TRIC-A or TRIC-B baculovirus; IP buffer (0.15 M NaCl, 20 mM MOPSO pH 7.0, 0.015% Tween-20) with 0.5% CHAPS, diluted to 0.1% CHAPS; anti-SBP monoclonal antibody (SB19-C4) or control IgG on Dynabeads protein G, 2 h at room temperature; TRIC-A and TRIC-B detected by Western blot.

These are yes or no findings as the source states them, for the method shown. In cells and extracts the contact can be indirect. Some results given as binding are weak or reduced against the parent protein; the word gives no strength.

B1: trimeric intracellular cation channel TRIC-B (protein, UniProt Q9DAV9 1-292)
chain: MEYPWDDLTLAFSRTSMFPFFDIAHYLVSVMALKQRPGAVAAAWNNPLASWLSAMLHCFGGGILSCMLLAESPLKFLTNHTNILLASSIWYIVFFCPRDLVSQGYSYQPIQFLAAGMKEVTRTWKIVGGVSDANSYYRNAWIVMIVVGWARGAGGAVVTACEQLLKGDWKPEGDEWLKMSFPCKITLLGSIMFTFQHTRHLAISKHDLMFLYTIFLVTIKVTMMMTKDTAVTLTPFEDTLTRMLFGRRQQQQFSSSEKKTEVKPSSNGSASSASKRGAEPSGGAKRHAKKED
Regarding B1, the binding entry is reported as “binds”.

B2: trimeric intracellular cation channel TRIC-A (protein, UniProt Q3TMP8 1-298)
chain: MDLMSALSLGELALSFSRVPLFPVFDLSYFIVSIIYLKYEPGAVELSRRHPVASWLCAMLHCFGSYILADLLLGEPIIDYFSNSSSILLASGVWYLIFFCPLDLFYKCVCFLPVKLIFVAMKEVVRVRKIAVGIHHAHHHYHHGWFIMIATGWVKGSGVALLSNVEQLLRGVWKPETNEILHMSFPTKASLYGAILFTLQQTRWLPVSKASLIFVFTMFMVSCKVFLTATHSHSSPFDILEGYICPVLFGATWGGDHHHDNHGAPHGMGLGTQHSGLPAKAKEELGEGSRKKKTKKAD
In the case of B2, the binding result was “binds”.
